According to the supplement of paper PMC10849652:
Some of the results follow.

By UniProt entry, the sequences of proteins in these tests, tags left out. Where a name states a change or a piece, a line headed by the entry shows the natural chain unless it says otherwise.
UniProt Q15390: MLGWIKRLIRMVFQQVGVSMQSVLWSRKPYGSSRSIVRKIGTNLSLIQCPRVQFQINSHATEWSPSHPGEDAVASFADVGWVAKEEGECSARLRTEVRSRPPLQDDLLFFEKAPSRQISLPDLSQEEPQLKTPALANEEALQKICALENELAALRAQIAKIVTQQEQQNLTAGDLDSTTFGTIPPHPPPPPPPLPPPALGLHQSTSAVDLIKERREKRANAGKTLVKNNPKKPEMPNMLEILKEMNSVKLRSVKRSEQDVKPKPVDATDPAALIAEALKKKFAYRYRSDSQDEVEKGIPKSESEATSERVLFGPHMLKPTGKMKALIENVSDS
UniProt P13995: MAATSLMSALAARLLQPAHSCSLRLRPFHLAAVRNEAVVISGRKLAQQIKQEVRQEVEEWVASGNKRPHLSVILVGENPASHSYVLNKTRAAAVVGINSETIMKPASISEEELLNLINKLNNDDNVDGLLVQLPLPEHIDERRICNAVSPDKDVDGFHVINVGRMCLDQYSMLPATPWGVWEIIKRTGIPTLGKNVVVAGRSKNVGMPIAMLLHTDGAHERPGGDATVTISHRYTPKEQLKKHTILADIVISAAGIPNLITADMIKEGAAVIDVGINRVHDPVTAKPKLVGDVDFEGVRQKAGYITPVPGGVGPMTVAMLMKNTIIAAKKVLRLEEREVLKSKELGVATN
UniProt Q9HD23: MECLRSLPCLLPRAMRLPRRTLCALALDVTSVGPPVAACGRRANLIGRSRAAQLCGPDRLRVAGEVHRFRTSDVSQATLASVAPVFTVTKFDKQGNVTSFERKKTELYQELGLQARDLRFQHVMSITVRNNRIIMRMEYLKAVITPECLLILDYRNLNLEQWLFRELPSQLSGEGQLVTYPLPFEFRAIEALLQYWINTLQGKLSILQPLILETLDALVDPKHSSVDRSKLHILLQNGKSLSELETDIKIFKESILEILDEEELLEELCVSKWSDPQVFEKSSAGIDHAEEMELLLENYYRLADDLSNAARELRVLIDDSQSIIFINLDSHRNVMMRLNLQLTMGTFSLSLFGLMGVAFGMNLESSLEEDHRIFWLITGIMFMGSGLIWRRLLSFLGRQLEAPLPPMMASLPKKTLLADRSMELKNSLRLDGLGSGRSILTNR
UniProt Q9NZJ7, whole entry, looked up: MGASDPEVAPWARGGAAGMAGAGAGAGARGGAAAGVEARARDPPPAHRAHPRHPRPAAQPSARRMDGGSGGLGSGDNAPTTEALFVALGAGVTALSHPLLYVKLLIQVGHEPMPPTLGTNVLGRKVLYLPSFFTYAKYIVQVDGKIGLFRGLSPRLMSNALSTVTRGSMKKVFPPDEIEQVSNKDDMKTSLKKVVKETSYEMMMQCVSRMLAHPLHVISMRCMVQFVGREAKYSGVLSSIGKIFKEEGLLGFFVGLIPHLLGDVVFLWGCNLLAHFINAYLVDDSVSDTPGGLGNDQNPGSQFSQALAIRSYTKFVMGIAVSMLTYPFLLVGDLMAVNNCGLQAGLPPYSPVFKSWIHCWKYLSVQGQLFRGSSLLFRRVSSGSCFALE
UniProt Q9Y3D2: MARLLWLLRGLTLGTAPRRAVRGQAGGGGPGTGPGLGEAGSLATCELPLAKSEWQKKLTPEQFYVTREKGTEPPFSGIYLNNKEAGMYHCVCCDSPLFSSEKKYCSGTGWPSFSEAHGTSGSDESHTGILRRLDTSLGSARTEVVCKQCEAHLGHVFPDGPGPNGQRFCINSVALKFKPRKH
UniProt Q13505: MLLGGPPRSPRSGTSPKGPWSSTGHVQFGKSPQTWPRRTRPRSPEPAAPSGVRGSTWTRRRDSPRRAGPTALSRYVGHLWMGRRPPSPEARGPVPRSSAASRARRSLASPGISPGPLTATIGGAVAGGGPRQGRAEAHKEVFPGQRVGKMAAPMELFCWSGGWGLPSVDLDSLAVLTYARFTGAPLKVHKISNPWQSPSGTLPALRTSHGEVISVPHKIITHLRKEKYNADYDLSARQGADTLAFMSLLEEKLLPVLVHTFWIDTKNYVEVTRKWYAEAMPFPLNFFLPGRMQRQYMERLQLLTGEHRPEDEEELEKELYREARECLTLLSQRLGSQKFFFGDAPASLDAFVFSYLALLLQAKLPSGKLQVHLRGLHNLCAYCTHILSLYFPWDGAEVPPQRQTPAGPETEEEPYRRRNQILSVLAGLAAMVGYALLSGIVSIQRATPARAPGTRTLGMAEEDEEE
UniProt Q765P7: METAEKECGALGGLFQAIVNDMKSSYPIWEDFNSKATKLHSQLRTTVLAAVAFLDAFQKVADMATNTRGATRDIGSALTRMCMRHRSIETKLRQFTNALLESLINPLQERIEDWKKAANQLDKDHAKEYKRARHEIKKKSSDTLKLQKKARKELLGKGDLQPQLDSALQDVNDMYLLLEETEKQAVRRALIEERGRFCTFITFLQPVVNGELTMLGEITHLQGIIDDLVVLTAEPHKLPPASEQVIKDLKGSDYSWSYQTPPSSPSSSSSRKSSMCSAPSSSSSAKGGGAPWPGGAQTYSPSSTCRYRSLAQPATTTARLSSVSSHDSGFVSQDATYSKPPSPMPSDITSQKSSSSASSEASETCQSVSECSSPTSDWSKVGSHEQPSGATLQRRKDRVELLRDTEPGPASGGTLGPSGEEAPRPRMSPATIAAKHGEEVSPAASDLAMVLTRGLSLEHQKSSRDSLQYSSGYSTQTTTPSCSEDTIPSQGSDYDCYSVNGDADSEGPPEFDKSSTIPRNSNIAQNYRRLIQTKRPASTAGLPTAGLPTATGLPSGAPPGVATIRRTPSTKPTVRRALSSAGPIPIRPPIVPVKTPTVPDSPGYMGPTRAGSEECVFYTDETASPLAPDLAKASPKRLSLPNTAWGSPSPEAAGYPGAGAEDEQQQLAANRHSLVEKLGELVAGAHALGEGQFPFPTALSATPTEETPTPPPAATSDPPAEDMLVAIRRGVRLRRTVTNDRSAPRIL
UniProt P26038, whole entry, looked up: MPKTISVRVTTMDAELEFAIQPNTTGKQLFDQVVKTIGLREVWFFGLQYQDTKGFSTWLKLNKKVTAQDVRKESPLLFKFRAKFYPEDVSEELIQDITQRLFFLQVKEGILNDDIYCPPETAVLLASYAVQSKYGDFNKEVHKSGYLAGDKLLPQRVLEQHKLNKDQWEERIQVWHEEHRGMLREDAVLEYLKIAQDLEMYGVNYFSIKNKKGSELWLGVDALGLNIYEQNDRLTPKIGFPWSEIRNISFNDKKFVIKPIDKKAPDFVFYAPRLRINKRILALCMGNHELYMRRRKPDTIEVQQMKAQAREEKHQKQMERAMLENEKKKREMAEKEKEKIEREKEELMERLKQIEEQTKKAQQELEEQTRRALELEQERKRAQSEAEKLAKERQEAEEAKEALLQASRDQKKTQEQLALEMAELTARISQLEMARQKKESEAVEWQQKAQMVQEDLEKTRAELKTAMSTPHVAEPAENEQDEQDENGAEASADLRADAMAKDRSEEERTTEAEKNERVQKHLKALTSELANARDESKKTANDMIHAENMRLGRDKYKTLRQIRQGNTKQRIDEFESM
MTHFD1, A0A384N5Y3, UniProt A0A384N5Y3, whole entry, looked up: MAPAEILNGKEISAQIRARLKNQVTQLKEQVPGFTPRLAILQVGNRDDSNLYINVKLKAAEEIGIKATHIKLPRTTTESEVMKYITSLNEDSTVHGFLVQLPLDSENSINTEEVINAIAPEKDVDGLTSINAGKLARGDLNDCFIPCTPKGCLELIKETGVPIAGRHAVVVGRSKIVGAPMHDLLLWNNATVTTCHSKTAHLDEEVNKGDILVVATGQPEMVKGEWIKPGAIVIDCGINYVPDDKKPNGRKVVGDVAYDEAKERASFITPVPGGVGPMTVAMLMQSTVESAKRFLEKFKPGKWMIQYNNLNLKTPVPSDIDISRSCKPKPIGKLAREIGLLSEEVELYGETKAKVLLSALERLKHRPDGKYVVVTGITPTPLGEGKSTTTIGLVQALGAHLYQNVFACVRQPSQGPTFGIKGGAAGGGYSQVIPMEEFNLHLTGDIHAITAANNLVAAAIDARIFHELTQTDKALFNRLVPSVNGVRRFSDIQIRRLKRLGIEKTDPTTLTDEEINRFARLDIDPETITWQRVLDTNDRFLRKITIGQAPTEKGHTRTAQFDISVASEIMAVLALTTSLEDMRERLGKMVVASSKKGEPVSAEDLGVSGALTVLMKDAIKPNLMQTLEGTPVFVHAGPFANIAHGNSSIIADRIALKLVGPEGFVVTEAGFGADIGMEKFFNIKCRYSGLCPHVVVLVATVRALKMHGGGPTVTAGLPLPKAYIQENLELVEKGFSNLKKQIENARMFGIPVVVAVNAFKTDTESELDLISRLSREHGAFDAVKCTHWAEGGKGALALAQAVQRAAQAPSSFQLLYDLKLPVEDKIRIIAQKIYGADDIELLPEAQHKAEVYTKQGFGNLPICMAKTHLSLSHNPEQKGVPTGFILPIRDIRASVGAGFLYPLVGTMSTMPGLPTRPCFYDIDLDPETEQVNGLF
UniProt Q9H019: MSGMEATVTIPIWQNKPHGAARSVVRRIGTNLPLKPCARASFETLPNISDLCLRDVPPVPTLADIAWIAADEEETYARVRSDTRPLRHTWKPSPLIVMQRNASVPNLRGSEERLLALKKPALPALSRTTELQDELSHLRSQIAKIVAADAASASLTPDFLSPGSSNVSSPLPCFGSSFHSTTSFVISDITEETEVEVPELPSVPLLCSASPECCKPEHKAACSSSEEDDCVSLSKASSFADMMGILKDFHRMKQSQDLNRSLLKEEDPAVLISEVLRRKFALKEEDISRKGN
UniProt Q8NCE2: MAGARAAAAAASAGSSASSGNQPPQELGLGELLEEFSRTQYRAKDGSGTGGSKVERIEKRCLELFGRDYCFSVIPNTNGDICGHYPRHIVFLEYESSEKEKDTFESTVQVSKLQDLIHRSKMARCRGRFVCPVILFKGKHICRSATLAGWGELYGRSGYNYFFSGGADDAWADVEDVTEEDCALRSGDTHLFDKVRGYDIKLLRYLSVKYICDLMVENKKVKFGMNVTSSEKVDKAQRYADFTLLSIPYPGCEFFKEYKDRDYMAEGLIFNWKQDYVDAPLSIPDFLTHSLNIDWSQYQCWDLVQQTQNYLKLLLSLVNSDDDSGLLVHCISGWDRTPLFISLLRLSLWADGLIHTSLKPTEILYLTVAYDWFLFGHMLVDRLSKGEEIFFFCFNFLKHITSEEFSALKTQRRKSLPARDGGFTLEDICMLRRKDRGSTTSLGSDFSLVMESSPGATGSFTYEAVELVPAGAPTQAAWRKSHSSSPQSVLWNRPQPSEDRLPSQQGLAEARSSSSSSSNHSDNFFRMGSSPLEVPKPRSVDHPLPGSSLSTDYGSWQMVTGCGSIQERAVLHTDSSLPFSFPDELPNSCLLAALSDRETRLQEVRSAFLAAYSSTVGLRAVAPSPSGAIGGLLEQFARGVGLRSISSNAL
UniProt P20585: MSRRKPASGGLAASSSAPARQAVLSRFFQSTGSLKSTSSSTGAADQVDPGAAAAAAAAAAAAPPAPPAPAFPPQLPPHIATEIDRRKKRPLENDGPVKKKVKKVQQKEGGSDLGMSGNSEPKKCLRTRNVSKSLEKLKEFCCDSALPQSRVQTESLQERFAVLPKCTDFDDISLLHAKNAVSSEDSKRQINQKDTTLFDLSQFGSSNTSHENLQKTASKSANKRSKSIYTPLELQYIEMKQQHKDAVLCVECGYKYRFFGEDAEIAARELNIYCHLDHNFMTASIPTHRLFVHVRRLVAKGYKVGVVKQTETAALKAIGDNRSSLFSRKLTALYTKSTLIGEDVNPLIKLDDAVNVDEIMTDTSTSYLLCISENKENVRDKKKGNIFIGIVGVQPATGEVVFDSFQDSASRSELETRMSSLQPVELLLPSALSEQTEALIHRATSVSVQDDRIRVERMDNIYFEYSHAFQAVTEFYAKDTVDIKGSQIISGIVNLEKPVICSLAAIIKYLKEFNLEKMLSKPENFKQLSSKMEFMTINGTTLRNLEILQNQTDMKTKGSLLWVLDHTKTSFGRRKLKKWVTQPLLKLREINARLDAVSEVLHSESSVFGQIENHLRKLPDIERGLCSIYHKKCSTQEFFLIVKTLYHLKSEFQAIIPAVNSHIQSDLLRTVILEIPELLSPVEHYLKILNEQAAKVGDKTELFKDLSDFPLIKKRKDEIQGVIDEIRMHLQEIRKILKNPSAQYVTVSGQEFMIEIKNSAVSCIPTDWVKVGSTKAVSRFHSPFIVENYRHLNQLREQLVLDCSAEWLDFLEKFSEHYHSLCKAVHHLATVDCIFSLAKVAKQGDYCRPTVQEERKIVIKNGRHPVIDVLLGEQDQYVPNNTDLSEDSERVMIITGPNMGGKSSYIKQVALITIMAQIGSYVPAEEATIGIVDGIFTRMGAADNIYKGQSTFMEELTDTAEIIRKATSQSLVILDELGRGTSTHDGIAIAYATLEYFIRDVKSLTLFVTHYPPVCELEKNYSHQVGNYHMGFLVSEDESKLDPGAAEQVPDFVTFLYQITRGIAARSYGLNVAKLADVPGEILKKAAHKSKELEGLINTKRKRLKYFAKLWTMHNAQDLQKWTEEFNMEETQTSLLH

Columns and labels:
Test in all cases: log2 fold change, soluble protein after heating vs DMSO (PISA); higher = thermal stabilisation; K562 cells, 10 uM, 30 min; active = over 0.2 and 3.5 SD of the protein, either way, in both replicates (recomputed)
[1] = compound: CN1CCN(CCOc2cc(OC3CCOCC3)c3c(Nc4c(Cl)ccc5c4OCO5)ncnc3c2)CC1 [saracatinib]
Procedure, shortened: (§1)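 K562 cells at 2×10^6 cells/mL were given 10 μM compound for 30 min. Aliquots then went through 3 min of heating across 48°C-58°C, were pooled, and were extracted in PBS with 0.5% NP-40 at 4°C, and the supernatant after 21,000xg for 90 min was quantified by TMTpro 16plex LC-MS/MS with channel sums equalised. Thermal stability relative to control samples, from duplicates, is given as log2 fold change.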

[2] = compound: CN1CCN(c2nc(C3=C(c4c[nH]c5ccccc45)C(=O)NC3=O)c3ccccc3n2)CC1 [sotrastaurin]
Procedure, shortened: as §1

[3] = compound: CN1CC[C@H](c2c(O)cc(O)c3c(=O)cc(-c4ccccc4Cl)oc23)[C@H](O)C1 [alvocidib]
Procedure, shortened: as §1

[4] = compound: CN1CCc2c(c3ccccc3n2Cc2ccc(C(=O)NO)cc2)C1 [Tubastatin A]
Procedure, shortened: as §1

[5] = compound: CNC(=O)c1ccc(Nc2ncc(C(F)(F)F)c(NCc3nccnc3N(C)S(C)(=O)=O)n2)cc1 [defactinib]
Procedure, shortened: as §1

[6] = compound: CNCc1ccc(-c2[nH]c3cc(F)cc4c3c2CCNC4=O)cc1 [rucaparib]
Procedure, shortened: as §1

[7] = compound: CNc1nc(-c2ccc3c(N)n[nH]c3c2)cc(N2C[C@@H](C(=O)NC3CCCCC3)CC[C@H]2C)n1
Procedure, shortened: as §1

[8] = compound: COC(=O)N[C@@H](C)CNc1nccc(-c2cn(C(C)C)nc2-c2cc(Cl)cc(NS(C)(=O)=O)c2F)n1 [encorafenib]
Procedure, shortened: as §1

[9] = compound: COC(=O)[C@H](CCSC)NC(=O)C1=C(C=C(C=C1)NC[C@H](CS)N)C2=CC=CC=C2
Procedure, shortened: as §1

[10] = compound: CNC(=O)C1=CC=CC=C1NC2=NC(=NC=C2Cl)NC3=C(C=C(C=C3)N4CCOCC4)OC
Procedure, shortened: as §1

Measured: log2 fold change

MTMR1 (UniProt Q13613)
inactive: [1] -0.041 | [2] 0.05 | [3] -0.038 | [4] 0.012 | [5] -0.011 | [6] 0.051 | [7] -0.089 | [8] 0.163 | [9] -0.024

MRPS18A isoform 2 (UniProt Q9NVS2)
inactive: [1] -0.28 | [2] 0 | [3] 0.071 | [4] 0.106 | [10] -0.009 | [5] 0.189 | [6] 0.167 | [7] 0.054 | [8] 0.111 | [9] -0.03

MTFR1 (UniProt Q15390)
inactive: [1] -0.006 | [2] -0.002 | [3] -0.085 | [4] 0.04 | [10] -0.019 | [5] -0.078 | [6] -0.017 | [7] -0.037 | [8] -0.011 | [9] 0.061

MTHFD2 (UniProt P13995)
inactive: [1] 0.007 | [2] -0.009 | [3] 0.029 | [4] -0.043 | [10] 0.047 | [5] 0.005 | [6] -0.052 | [7] -0.026 | [8] 0 | [9] 0.034

MTPN (UniProt P58546)
inactive: [1] -0.166 | [2] -0.023 | [3] -0.072 | [4] 0.117 | [10] 0.066 | [5] -0.098 | [6] -0.005 | [7] 0 | [8] -0.051 | [9] 0.065

MRPL58 (UniProt Q14197)
inactive: [1] -0.136 | [2] -0.055 | [3] 0.01 | [4] 0.058 | [10] -0.043 | [5] 0.154 | [6] 0.088 | [7] 0.091 | [8] 0.062 | [9] 0.02

2 neighbouring entries from above, quoted:
MTFR1 (UniProt Q15390)
inactive: [1] -0.006 | [2] -0.002 | [3] -0.085 | [4] 0.04 | [10] -0.019 | [5] -0.078 | [6] -0.017 | [7] -0.037 | [8] -0.011 | [9] 0.061

MTHFD2 (UniProt P13995)
inactive: [1] 0.007 | [2] -0.009 | [3] 0.029 | [4] -0.043 | [10] 0.047 | [5] 0.005 | [6] -0.052 | [7] -0.026 | [8] 0 | [9] 0.034

Later entries:

MRS2 (UniProt Q9HD23)
inactive: [1] 0.035 | [2] 0.037 | [3] 0.05 | [4] -0.026 | [10] -0.044 | [5] -0.02 | [6] -0.01 | [7] 0 | [8] -0.001 | [9] -0.015

MRPS30 (UniProt Q9NP92)
inactive: [1] -0.162 | [2] -0.012 | [3] 0.102 | [4] 0.011 | [10] -0.024 | [5] 0.058 | [6] 0.09 | [7] 0.157 | [8] 0.025 | [9] -0.028

MTCH1 (UniProt Q9NZJ7)
inactive: [1] 0.045 | [2] 0.049 | [3] -0.051 | [4] -0.067 | [10] 0.042 | [5] -0.001 | [6] -0.038 | [7] 0.03 | [8] 0.002 | [9] -0.018

MRPS22 (UniProt P82650)
inactive: [1] -0.098 | [2] -0.122 | [4] -0.006 | [10] -0.038 | [5] 0.058 | [6] 0.143 | [7] 0.169 | [8] 0.064 | [9] -0.051

MRTO4 (UniProt Q9UKD2)
inactive: [1] -0.059 | [2] -0.137 | [3] 0.007 | [4] 0.213 | [10] 0.042 | [5] 0.088 | [6] 0.288 | [7] 0 | [8] 0.239 | [9] -0.053

MRPS14 (UniProt O60783)
inactive: [1] -0.03 | [2] -0.002 | [3] 0.045 | [4] 0 | [5] 0.14 | [6] 0.049 | [7] 0.12 | [8] -0.064 | [9] -0.116

MTERF4 (UniProt Q7Z6M4)
inactive: [1] 0.177 | [2] 0.194 | [3] -0.059 | [4] -0.112 | [10] -0.012 | [7] 0.117

MSRB2 (UniProt Q9Y3D2)
inactive: [1] 0.08 | [2] 0.021 | [3] -0.103 | [4] 0.235 | [10] 0.049 | [5] -0.031 | [6] 0.103 | [7] 0.019 | [8] 0.013 | [9] 0.044

MTX1 (UniProt Q13505)
inactive: [1] -0.009 | [2] 0.041 | [3] -0.049 | [4] -0.007 | [10] 0.024 | [5] -0.034 | [6] -0.012 | [7] -0.022 | [8] -0.023 | [9] -0.044

MTSS2 (UniProt Q765P7)
inactive: [1] 0.062 | [2] 0.048 | [3] -0.007 | [4] 0.046 | [10] 0.044 | [5] -0.016 | [6] -0.221 | [7] 0.012 | [8] -0.07 | [9] 0.034

MSN (UniProt P26038)
inactive: [1] 0.021 | [2] -0.004 | [3] -0.037 | [4] -0.01 | [10] 0.076 | [5] -0.029 | [6] -0.026 | [7] -0.01 | [8] -0.006 | [9] -0.034

MSMO1 (UniProt Q15800)
inactive: [1] 0.087 | [2] 0.042 | [3] 0.014 | [4] 0.012 | [10] -0.015 | [5] 0.045 | [6] -0.091 | [7] 0.019 | [8] 0.01 | [9] 0.028

MRPS5 (UniProt P82675)
inactive: [1] -0.094 | [2] -0.124 | [4] -0.009 | [10] -0.024 | [5] 0.068 | [6] 0.129 | [7] 0.161 | [8] 0.072 | [9] -0.068

MSH6 (UniProt P52701)
inactive: [1] -0.142 | [2] -0.278 | [4] 0.127 | [10] -0.049 | [5] -0.379 | [6] -0.014 | [7] 0.102 | [8] 0.141 | [9] -0.098

MTHFD1, A0A384N5Y3
inactive: [1] -0.047 | [2] 0.025 | [4] 0.032 | [5] -0.173 | [6] -0.039 | [7] -0.004 | [8] -0.003 | [9] -0.036

MRPS12 (UniProt O15235)
inactive: [1] -0.19 | [2] -0.068 | [4] -0.02 | [10] -0.017 | [5] 0.119 | [6] 0.299 | [7] 0.233 | [8] 0.105 | [9] 0.048

MRPS9 (UniProt P82933)
inactive: [1] -0.064 | [2] -0.072 | [4] 0.04 | [10] 0.013 | [5] 0.056 | [6] 0.087 | [7] 0.136 | [8] 0.05 | [9] -0.081

MTFR1L (UniProt Q9H019)
inactive: [1] 0.052 | [2] -0.037 | [4] 0.052 | [10] -0.024 | [5] -0.085 | [7] -0.054 | [9] -0.14

MTMR14 (UniProt Q8NCE2)
inactive: [1] -0.037 | [2] -0.042 | [4] 0 | [10] 0.008 | [5] -0.058 | [6] -0.017 | [7] -0.064 | [8] -0.026 | [9] 0.038

MRPS15 (UniProt P82914)
inactive: [1] -0.134 | [2] -0.079 | [4] 0.039 | [10] -0.07 | [5] 0.035 | [6] 0.084 | [7] 0.115 | [8] 0.039 | [9] -0.01

MSH3 (UniProt P20585)
inactive: [1] -0.013 | [2] -0.003 | [4] 0.045 | [10] -0.026 | [5] 0.015 | [6] 0.031 | [7] -0.011 | [8] 0.069 | [9] -0.02

MRPS18B (UniProt Q9Y676)
inactive: [1] -0.038 | [2] 0.082 | [4] 0.125 | [10] 0.007 | [5] -0.016 | [6] 0.065 | [7] 0.225 | [8] 0.034 | [9] -0.027
